For 1 molecule, A450 results are on record in patent EP2698384A1, “Detection of synthetic cannabinoids” (priority 2012, dated 2014).

Like-named read-outs stand apart in the source and are kept apart here.

For this data set, the system named is Antibody to Immunogen III. It is filed as binding, sheep. The conditions noted are these: standard curve. The protocol: The wells of an enhanced binding 96 well polystyrene microtiter plate were coated with IgG fraction of antiserum raised to Immunogen VI, diluted in 10mM Tris, pH8.5 (125µl/well). The appropriate antibody coating dilution was determined using standard ELISA checkerboard techniques. The plate was incubated overnight at 4°C, washed 4 times over 10 minutes with Tris buffered saline containing Tween 20 (TBST) and tapped dry. Standard solutions of RCS-4 were prepared in TBST at 0, 0.3125, 0.625, 1.25, 2.5, 5, 10 and 20ng/ml, and 50µl of each was added to the appropriate wells (see figure 1). 75µl of conjugate (appropriate hapten-HRP) diluted in Tris buffer (pH 7.2) containing EDTA, D-mannitol, sucrose, thimerosal and BSA, was added to each of the wells. The appropriate dilution of conjugate was also determined using standard ELISA checkerboard techniques. The plate was incubated at 25°C for 1 hour. Excess unbound conjugate was removed by washing 6 times over a 10 minute period with TBST. 125µl oftetramethylbenzidine (TMB) substrate solution was added to each well of the plate that was then incubated for 20 minutes in the dark at room temperature. The reaction was terminated by addition of 125µl 0.2M H2SO4 to each well. The absorbance was then measured at 450nm using a microtiter plate reader. The data are inputted to a computer program called 'KC Junior'. It is a 4 parameter fit curve and allow the calculatation of concentrations between the standard runs. This program is used to calculate the IC50s by dividing the 0ng/ml OD value by 2 and obtaining the concentration value from the curve for this OD.
In a similar manner to that described above, the wells of a 96-well microtiter plate were coated with the IgG fraction of the antiserum raised to Immunogens I, II or III. Standard solutions (JWH-250 for Immunogen III) were applied at 0, 0.625, 1.25, 2.5, 5, 10, 20 and 40ng/ml and conjugate was employed as detection reagent.
The data set our in Tables 3 and 4 are generated using antibodies raised against the indicated Immunogens in a competitive binding assay with the indicated tracers, using the indicated standards: Table 2
In order to determine the specificity of the competitive ELISAs, standard solutions of a range of structurally similar synthetic cannabinoids and their metabolites were prepared in TBST. Using the calibration curves generated and employing a single level of cross reactants, these were used to determine the cross-reactivity of each immunoassay with these substances. Table 4: Cross reactivity of the competitive ELISAs for synthetic cannabinoids and their metabolites

For `CCCCCn1cc(C(=O)Cc2ccccc2OC)c2ccccc21` [JWH-250, 2-(2-methoxyphenyl)-1-(1-pentyl-1H-indol-3-yl)ethanone], the A450 (JWH-250 1 ng/ml (first row printed 1)) worked out at 1.557; the A450 (JWH-250 1 ng/ml (second row printed 1)) turned out to be 1.287; the A450 (JWH-250 3 ng/ml) amounted to 1.0925; the A450 (JWH-250 5 ng/ml) came to 0.796; the A450 (JWH-250 10 ng/ml) came out at 0.6905; the A450 (JWH-250 20 ng/ml) turned out to be 0.5415. The A450 (JWH-250 40 ng/ml) is 0.4165.
